Data published in the supplement of paper PMC3334620.
Over roughly 33,000 sequences, “E-score (-0.5 to 0.5)” has its median near -0.0034; the highest 2% begin near 0.25. The list shows a part of the results.

Each sequence was assayed against T1, Yap3 (UniProt P38749) (assay: PBM E-score (8-mer binding enrichment) (E-score (-0.5 to 0.5)); higher = stronger / more preferred TF binding). Conditions: protein concentration: 100 nM; construct: GST-full length.
T1 sequence: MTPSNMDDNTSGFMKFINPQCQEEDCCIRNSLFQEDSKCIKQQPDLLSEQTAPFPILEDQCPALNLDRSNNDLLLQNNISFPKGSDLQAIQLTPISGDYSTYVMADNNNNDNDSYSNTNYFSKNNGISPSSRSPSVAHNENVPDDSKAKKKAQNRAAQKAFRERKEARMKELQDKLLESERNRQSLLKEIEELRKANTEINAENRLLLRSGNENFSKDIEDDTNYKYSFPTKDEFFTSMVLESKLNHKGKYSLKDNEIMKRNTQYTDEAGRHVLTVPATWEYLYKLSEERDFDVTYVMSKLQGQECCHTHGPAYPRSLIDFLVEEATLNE
Experimental: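 Universal 'all 10-mer' protein binding microarrays (Agilent AMADID 015681) probed with GST-tagged S. cerevisiae TFs (full-length or DBD) made by in vitro transcription/translation (PURExpress), about 100-200 nM. Bound TF was detected with fluorescent anti-GST. Each ungapped 8-mer (which stands for itself and its reverse complement) is scored by the PBM enrichment score (E-score), a modified Wilcoxon-Mann-Whitney statistic from -0.5 to +0.5, computed with the Universal PBM Analysis Suite. Scale: above 0.35 generally sequence-specific binding.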

| Sequence | PBM E-score |
| --- | --- |
| AGCATTAG | 0.0718 |
| AAACGGTA | 0.301 |
| CTCTCTGC | -0.0791 |
| ACCCACGT | 0.0788 |
| CACTCCCG | -0.0225 |
| CGGACAAG | 0.135 |
| CAAACCCA | 0.155 |
| GAGCGACC | -0.142 |
| CTAAGAAG | 0.00476 |
| GAATAGTA | 0.24 |
| CGTATCCA | -0.0607 |
| AAGATTGA | 0.0687 |
| GAAATGTC | -0.0215 |
| AGTAAATC | 0.159 |
| GGATAAGA | 0.0239 |
| AACACGCC | -0.0623 |
| TATCTGCA | 0.0463 |
| ACCTCCCG | -0.279 |
| CAGGGGAC | -0.249 |
| CGATGGCG | 0.0348 |
| AATCCGGT | 0.162 |
| CTTCACCC | 0.104 |
| GGCTCCTA | -0.336 |
| TACAAGGA | 0.144 |
| AAATTCTT | 0.0652 |

| Sequence | PBM E-score |
| --- | --- |
| TTGAGAAA | 0.0166 |
| GCGGACCA | 0.0668 |
| ATGTAATA | 0.371 |
| CACTGGGC | -0.162 |
| GCTAATCC | 0.0261 |
| GGTGCATA | -0.012 |
| CAAGATCG | -0.0589 |
| CTGTGGAA | -0.0586 |
| CTGTAAGC | -0.0121 |
| AAGCCGGA | 0.0522 |
| AACGTCGC | -0.106 |
| CAAGAGCC | 0.0964 |
| CTTGAACA | -0.0355 |
| ACGCTGCC | -0.225 |
| TATCTTGA | -0.0978 |
| CAGCAAAG | 0.00686 |
| ATTGGCAG | -0.0651 |
| AAACAATA | 0.163 |
| AGTCTCTC | -0.0846 |
| GTCTCGAA | 0.00257 |
| CAGCCCGC | -0.171 |
| GAAACCAC | 0.0924 |
| ACGTGCAA | 0.107 |
| GTTACGAA | 0.181 |
| TGCGCTAA | 0.14 |

| Sequence | PBM E-score |
| --- | --- |
| GCCGTTCC | -0.0665 |
| GACTAGAC | -0.164 |
| CAAACACG | 0.092 |
| CCTGGTAG | -0.175 |
| CCTTATAC | 0.0445 |
| CAGTCACG | -0.157 |
| GGTCCTGA | -0.187 |
| CCGGTGCG | -0.192 |
| CAGTGGTC | -0.163 |
| GGTAACAC | 0.0453 |
| CACACCGG | -0.0838 |
| CACACGCA | -0.112 |
| CCTAAGCC | -0.262 |
| CCCGAACC | -0.213 |
| CAAACCAG | 0.00756 |
| CTGCCAGA | -0.201 |
| ACTCCACT | -0.111 |
| ACAGCTTG | 0.0129 |
| AGTACACC | 0.0217 |
| ATATACCG | 0.177 |
| CGCAGCTA | -0.268 |
| TAATGCGA | 0.189 |
| CTTTCACC | 0.105 |
| AAATATTT | 0.249 |
| CTGCTGGC | -0.396 |

| Sequence | PBM E-score |
| --- | --- |
| AATTTTCA | 0.143 |
| GACACTCA | -0.0515 |
| CCACTCTA | 0.0474 |
| ACCGTCCG | -0.237 |
| AAGAATCC | -0.111 |
| CCATGCGA | -0.0102 |
| ATCACTAA | 0.0281 |
| CCCGCCCC | 0.022 |
| ATGCGGTC | -0.0772 |
| AATGAGTG | 0.0774 |
| CTGATCGC | 0.0503 |
| ACATCTCG | 0.136 |
| AGGCATTC | -0.0597 |
| AAGGATGC | -0.0349 |
| CCTGCTAG | -0.128 |
| GCTGACTA | 0.0115 |
| GACGCAAA | 0.0726 |
| TAATATAA | 0.344 |
| GAAGCGCC | -0.0767 |
| TAGCTTAA | 0.0898 |
| ACTATGCA | 0.0787 |
| GGTTGTGA | 0.13 |
| GGCGTCTA | -0.227 |
| TTAGACAA | 0.128 |
| AAGATGTG | 0.0314 |

| Sequence | PBM E-score |
| --- | --- |
| GGACTACC | -0.151 |
| ACGCCCAC | 0.00322 |
| CGTTGCGA | -0.00355 |
| ACGCACCG | -0.0321 |
| ATTACTGA | 0.154 |
| CTACTGAG | -0.0327 |
| TCCAAAGA | 0.00752 |
| CCTCAATA | 0.0618 |
| GCGCTGAA | -0.154 |
| AAGAAAAA | 0.059 |
| ATGACCTG | -0.0439 |
| GAGTACCA | 0.223 |
| AGTTCCAT | 0.16 |
| AGGTGTAC | -0.0191 |
| AAACACCT | 0.0568 |
| TATCGTGA | -0.0296 |
| GGTAAACC | -0.119 |
| GCCATAAA | 0.0788 |
| AATCCAAT | 0.0791 |
| AATGCGAA | -0.012 |
| GTACGTAA | 0.312 |
| AACAGAGT | 0.131 |
| ACCTTACT | 0.21 |
| TAAGGCGA | 0.0481 |
| GATGGATA | 0.0671 |

| Sequence | PBM E-score |
| --- | --- |
| ATAACTCG | 0.114 |
| GTTATAAC | 0.162 |
| CCCAAGAA | -0.109 |
| CGAGCTTC | 0.0418 |
| AATCCCTC | -0.0305 |
| AGCGCGCA | 0.24 |
| AGTTCAAG | 0.121 |
| ACCATCTA | -0.0999 |
| GCCTATGA | -0.134 |
| AGAACCTA | 0.0493 |
| ATGTCTCG | -0.0888 |
| CCATACTC | -0.133 |
| AAGTTGAA | 0.0412 |
| CATTTGCA | 0.136 |
| CAGCAAGC | -0.237 |
| ACTCACTC | -0.00993 |
| CACCACTC | -0.0806 |
| ACCACCGG | -0.18 |
| GTCACGCA | -0.0179 |
| ACCCCTGG | -0.299 |
| CCATACAG | -0.0851 |
| ACTATAGA | 0.0739 |
| AGCGGCAA | -0.0859 |
| GAGCCCCA | -0.286 |
| AATTGAAC | 0.0173 |

| Sequence | PBM E-score |
| --- | --- |
| TGGAACCA | 0.12 |
| GGTCACGA | 0.0748 |
| CGGCAGAA | 0.124 |
| ATATGTCA | 0.17 |
| GCAGTGCC | -0.298 |
| ATAACCGA | -0.00325 |
| CAAGGTGA | 0.0315 |
| GCCTATAC | -0.0816 |
| AGATTCCT | -0.0936 |
| CCATTTGC | 0.0381 |
| ACGAACCA | 0.266 |
| CAAGTAAG | 0.0683 |
| CAGCGAGG | -0.125 |
| AAACGATT | 0.198 |
| GCATCTGA | -0.225 |
| ACGACACA | 0.17 |
| CTACCAGA | -0.0115 |
| ATAGCTCG | -0.243 |
| GAGTGAGA | -0.0542 |
| AGTTGGGA | -0.145 |
| ATAGCCAT | 0.0223 |
| AACCTGTC | -0.0277 |

Reformatted with tabs: entries from further up
Sequence	PBM E-score
AGATTCCT	-0.0936
CCATTTGC	0.0381

Given with bars between the fields: part of the list above
Sequence | PBM E-score
CAAGGTGA | 0.0315
GCCTATAC | -0.0816
AGATTCCT | -0.0936
CCATTTGC | 0.0381
